In publication PMC9066070, “RGI‐GOLVEN signaling promotes cell surface immune receptor abundance to regulate plant immunity” (EMBO Reports, 2022):
These are yes or no findings as the source states them, for the method shown. In cells and extracts the contact can be indirect. Some entries that bind do so weakly or less than the wild type. Sequences can lack the tags named with a protein.

By UniProt entry, the sequences of proteins in these tests, tags left out. Residues count along the entry.
UniProt Q9FL28, residues 24-1173: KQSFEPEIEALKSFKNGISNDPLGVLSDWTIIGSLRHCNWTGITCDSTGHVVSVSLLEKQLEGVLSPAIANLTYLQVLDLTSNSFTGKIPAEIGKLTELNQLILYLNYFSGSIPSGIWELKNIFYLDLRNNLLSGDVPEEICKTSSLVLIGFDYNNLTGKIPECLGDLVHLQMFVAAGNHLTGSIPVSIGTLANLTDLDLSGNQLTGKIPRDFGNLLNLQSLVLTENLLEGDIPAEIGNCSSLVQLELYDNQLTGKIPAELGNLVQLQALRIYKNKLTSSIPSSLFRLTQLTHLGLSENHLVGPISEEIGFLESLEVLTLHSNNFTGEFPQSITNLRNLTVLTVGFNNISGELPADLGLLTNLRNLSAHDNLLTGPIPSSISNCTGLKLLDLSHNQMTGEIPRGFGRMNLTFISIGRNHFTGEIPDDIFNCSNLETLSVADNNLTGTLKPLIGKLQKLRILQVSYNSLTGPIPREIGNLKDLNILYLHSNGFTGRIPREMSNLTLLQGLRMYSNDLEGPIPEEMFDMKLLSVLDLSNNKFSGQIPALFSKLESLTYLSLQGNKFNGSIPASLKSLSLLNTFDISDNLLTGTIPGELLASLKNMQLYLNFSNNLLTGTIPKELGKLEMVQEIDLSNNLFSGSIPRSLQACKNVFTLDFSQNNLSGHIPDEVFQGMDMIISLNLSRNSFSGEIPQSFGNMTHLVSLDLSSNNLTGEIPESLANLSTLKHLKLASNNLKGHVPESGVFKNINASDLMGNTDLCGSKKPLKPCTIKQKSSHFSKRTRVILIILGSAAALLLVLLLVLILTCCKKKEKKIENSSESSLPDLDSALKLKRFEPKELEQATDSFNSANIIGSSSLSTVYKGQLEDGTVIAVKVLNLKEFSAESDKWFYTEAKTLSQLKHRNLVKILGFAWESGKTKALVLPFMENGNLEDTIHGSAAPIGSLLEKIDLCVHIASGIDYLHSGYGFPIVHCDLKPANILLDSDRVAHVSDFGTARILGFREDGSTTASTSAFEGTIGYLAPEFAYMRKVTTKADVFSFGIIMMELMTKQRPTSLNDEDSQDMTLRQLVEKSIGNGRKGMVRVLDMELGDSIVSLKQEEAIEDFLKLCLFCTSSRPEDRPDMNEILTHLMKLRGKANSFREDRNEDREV

Tests used:
[1] = target: T1, RGI3-GFP (Arabidopsis thaliana) (UniProt C0LGR3); experiment: co-IP
T1 sequence: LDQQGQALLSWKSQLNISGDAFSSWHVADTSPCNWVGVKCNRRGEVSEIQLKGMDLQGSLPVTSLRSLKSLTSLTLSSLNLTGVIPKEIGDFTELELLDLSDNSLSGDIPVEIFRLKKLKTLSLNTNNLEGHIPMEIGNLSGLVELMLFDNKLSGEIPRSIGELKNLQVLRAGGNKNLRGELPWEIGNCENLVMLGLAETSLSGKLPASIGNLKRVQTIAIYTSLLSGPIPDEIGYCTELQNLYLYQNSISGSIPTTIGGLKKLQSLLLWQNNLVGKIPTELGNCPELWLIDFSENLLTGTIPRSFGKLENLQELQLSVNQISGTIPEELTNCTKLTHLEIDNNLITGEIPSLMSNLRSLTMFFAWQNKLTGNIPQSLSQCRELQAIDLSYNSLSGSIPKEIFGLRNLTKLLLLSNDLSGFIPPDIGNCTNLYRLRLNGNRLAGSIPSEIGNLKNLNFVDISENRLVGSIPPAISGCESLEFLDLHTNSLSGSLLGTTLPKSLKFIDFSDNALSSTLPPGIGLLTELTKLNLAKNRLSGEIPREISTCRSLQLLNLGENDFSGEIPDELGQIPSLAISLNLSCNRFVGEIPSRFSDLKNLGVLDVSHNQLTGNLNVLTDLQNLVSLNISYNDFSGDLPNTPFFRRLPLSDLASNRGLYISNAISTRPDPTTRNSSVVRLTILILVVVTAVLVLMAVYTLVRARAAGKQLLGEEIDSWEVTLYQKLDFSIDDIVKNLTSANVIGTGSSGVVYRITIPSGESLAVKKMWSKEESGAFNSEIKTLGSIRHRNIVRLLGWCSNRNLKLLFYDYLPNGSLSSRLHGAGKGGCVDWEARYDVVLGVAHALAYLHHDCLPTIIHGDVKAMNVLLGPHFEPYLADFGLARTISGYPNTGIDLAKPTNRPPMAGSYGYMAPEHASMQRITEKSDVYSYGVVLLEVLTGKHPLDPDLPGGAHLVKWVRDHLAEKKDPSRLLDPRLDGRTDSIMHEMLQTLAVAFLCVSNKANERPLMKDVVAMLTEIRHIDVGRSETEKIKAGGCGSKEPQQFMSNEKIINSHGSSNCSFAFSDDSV

[2] = target: T1, RGI3-GFP (Arabidopsis thaliana); experiment: co-IP; FLS2-HA co-expressed with CLV1-GFP or RGI3-GFP in N. benthamiana, no ligand named; IP with GFP-TRAP beads, blots with α-GFP and α-HA
[3] = target: T2, CLV1-GFP (Arabidopsis thaliana) (UniProt Q9SYQ8); experiment: as above
T2 sequence: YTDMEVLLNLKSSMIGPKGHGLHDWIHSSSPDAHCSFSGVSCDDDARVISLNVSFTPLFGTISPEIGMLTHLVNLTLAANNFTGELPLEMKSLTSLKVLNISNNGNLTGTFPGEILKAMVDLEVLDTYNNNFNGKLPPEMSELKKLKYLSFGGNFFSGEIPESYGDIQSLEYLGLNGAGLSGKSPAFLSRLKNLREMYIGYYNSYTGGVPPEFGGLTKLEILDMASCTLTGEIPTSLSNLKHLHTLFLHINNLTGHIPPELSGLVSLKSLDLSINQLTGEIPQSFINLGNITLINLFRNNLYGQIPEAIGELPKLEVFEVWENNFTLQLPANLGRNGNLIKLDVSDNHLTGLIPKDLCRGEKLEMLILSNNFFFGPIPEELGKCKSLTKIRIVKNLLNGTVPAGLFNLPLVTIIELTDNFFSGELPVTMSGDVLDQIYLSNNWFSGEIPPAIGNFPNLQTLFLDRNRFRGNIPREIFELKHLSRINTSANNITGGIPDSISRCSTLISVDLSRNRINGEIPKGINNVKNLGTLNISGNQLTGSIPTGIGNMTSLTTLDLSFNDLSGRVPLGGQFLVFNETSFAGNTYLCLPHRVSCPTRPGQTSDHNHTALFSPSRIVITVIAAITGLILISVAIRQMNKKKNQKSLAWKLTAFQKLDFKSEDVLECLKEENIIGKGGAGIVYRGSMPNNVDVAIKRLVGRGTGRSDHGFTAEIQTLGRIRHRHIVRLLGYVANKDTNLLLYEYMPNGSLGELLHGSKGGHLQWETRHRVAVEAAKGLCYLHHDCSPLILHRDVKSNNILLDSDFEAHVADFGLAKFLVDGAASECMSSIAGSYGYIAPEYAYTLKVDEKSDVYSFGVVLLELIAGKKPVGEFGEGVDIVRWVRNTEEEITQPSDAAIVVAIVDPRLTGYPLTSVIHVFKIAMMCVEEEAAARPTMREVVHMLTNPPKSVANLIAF

binding [1]: binds
binding [2]: binds weakly
binding [3]: no binding
Substance: FLS2-HA (from UniProt Q9FL28 24-1173) (receptor)
